According to PMC6418418:
No constants are given. Whether binding was seen depends on the method and setting. In cells and extracts the contact can be indirect. Some binding calls cover weakened binding; strength is not graded here.

The chains behind the UniProt entries cited, without tags or fusion partners. Where a name states a change or a piece, a line headed by the entry shows the natural chain unless it says otherwise.
UniProt Q96LD8: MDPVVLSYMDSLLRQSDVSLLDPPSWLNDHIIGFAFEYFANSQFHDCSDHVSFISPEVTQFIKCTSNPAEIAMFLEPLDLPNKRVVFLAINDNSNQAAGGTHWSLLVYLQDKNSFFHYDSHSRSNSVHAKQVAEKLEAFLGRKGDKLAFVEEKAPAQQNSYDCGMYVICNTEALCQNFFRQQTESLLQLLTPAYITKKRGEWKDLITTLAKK
UniProt Q92905: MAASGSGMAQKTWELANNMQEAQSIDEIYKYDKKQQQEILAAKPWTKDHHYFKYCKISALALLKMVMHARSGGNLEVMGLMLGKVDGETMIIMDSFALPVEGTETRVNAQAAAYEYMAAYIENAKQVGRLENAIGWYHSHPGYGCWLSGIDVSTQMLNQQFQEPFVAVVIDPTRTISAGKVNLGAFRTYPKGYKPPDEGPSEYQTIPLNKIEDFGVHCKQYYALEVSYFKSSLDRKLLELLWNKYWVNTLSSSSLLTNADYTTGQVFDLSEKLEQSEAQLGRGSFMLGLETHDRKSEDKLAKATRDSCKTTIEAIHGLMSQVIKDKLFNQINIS
UniProt Q99627: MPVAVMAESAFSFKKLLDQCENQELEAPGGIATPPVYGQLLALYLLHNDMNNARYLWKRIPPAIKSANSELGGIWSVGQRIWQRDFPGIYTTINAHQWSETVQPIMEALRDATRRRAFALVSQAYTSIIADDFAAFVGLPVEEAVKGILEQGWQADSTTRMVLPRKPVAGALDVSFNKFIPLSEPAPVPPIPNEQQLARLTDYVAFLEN

Biological target: HALO-NEDP1 C163A (UniProt Q96LD8)
Experiment: pull-down; recombinant HALO-NEDP1 (CA or DAGC) conjugated to HALO-Link beads, incubated with lysates of HEK 293 WT and NEDP1 KO cells; Western blot; only the target purified

## CSN5 (from UniProt Q92905 1-334)
  binding: binds

## CSN8 (from UniProt Q99627 1-209)
  binding: binds
